Drawing on the RNAGym collection of RNA variant scans (doi:10.1126/science.aae0568), this text covers yeast fitness for 167 variants.

Variants at the floor of the assay are shown more often than the library holds them.

To fix the notation:
B1: tRNA (parent)
chain: GUUCCGUUGGCGUAAUGGUAACGCGUCUCCCUCCUAAGGAGAAGACUGCGGGUUCGAGUCCCGUACGGAACG

The data set covers variants of B1. Kind of data set: yeast fitness relative to wild type (ratio to wild type); higher = fitter; tRNA-Arg(CCU), competitive growth, 37 C, YPD. Summed up: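 The tRNA-Arg(CCU) gene variants were made by chemical synthesis with a 3% per-site mutation rate at 69 sites and inserted at the native genomic locus of Saccharomyces cerevisiae. After pooling, the strains were competed in YPD at 37°C for 24 hours in six parallel replicates. Gene amplicons from the start population and each end population were read by 100-nucleotide paired-end sequencing, and Darwinian fitness relative to wild type was taken from genotype frequency changes. Genotypes needed ≥ 100 starting reads, and estimates < 0.5 were set to 0.5.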
As for U8A G44A G67C, the yeast fitness is at most 0.5. Then U7C C55U C60G, with at most 0.5; and U3C U8A A43U U64A A69C, with at most 0.5. In the case of G12A A14U G48A U53C, the yeast fitness is at most 0.5. A21C G25C U26G G48A G58C: the yeast fitness was at most 0.5. Then G12A C31U A40C C61U, with at most 0.5; and A57U A65U G67A G68C, with at most 0.5. With G6C A21G C24G C31A G44A, the yeast fitness was at most 0.5. Then C22U U28C G67C, with at most 0.5. In the case of C4U G23C A36C C55G A57U G67A it was at most 0.5.

As to C30U A43C G52A G63A, the yeast fitness is at most 0.5. Then C27U C46U C55G, with at most 0.5. In the case of C4U G6C U16C G67A it was at most 0.5; in that of C4A U8A A21U U26A A37C C49U, at most 0.5.

G10A G39C A57C: the yeast fitness was at most 0.5. As for C5G G23A A43G G48C, the yeast fitness was at most 0.5. Then C22U C27G C31U G68A, with at most 0.5; and A20C C34A A45G A65U C66G, with at most 0.5. In the case of G9A A45C C49U it was 0.643; in that of C24G G25C A40C A42U U47A C61G G63A C66G, at most 0.5. In the case of G9A A14U C46G C55U A69C it was at most 0.5. Turning to A14U C34G C46A C62U A69C, the yeast fitness is at most 0.5. Take C4A U8A: the yeast fitness is 0.694.

Turning to C27U C62U G68C A69G, the yeast fitness was at most 0.5. Then A45G G51A, with 0.716; and A37G G39C C55G, with at most 0.5; and A21U C31U G41A A42C U54G, with at most 0.5. For C33G G44A G56A, the yeast fitness is at most 0.5. As to U7C G9C G51C A69C, the yeast fitness is at most 0.5. Then C30A G51C C55A C66U, with at most 0.5; and A15C U16A A21G U26A C30U C46G A57C G68U, with at most 0.5; and C5U U28C G38A A40C, with at most 0.5.

In the case of G18A A20G C46U U59C G68A, the yeast fitness is at most 0.5. C22G U28A C31G C55A: the yeast fitness is at most 0.5. In the case of G23C G41A C62A it was at most 0.5. In the case of U3C C5G A21G U32C A65U G68A it was at most 0.5; in that of A14U C30U G68A, at most 0.5. Regarding G9A U35G A65G, the yeast fitness is at most 0.5. For U8C A21U, the yeast fitness came to 0.802. Then C5G C11G A14C U35G A45C A57C C62G, with at most 0.5; and G9A C49A C61U C62A G67C, with at most 0.5. Then C4A A14U A70U, with at most 0.5. Then U8A C29U C31A G38A, with at most 0.5; and C4A A21U A57C, with at most 0.5; and C4U C33U A65C G68A A70U, with at most 0.5. On to A14U A36U G41A C49G A69U, for which the yeast fitness is at most 0.5.

Take U2C A14C U35C C46A: the yeast fitness was at most 0.5. In the case of C5A A14C A15G A20G C49A it was at most 0.5; in that of U19A C27A C31A U32C A57C, at most 0.5; in that of C11G C24A C29A C61U, at most 0.5. In the case of U3A C30G C46G it was at most 0.5; in that of C33A G39C C49U U54A, at most 0.5. Then G12A C29G, with 0.61. Consider C4G C11U U28G A45C U53A G63C, for which the yeast fitness was found to be 0.559. In the case of U3C C22G C27A C49U, the yeast fitness was at most 0.5. Then U2G A21G G39A A70G, with at most 0.5; and A21U C31A G39C, with at most 0.5; and U8C C11G C30U A37C C46U, with at most 0.5.

Take G17A U19A G23A C31U C34A G48C C62U: the yeast fitness is at most 0.5.

Regarding C5U C22G C31G U54G, the yeast fitness was at most 0.5.

Regarding C33G A45G C55G G56C, the yeast fitness was at most 0.5. In the case of C11A C55G A69C it was at most 0.5; in that of G39A G52A, 0.759; in that of A14U A40C U53A, at most 0.5.

Consider U3G U32G A65C, for which the yeast fitness was at most 0.5.

U13C C24U C34U A69C: the yeast fitness is at most 0.5.

For the variant A14C C30U G39C, the yeast fitness is at most 0.5. In the case of G10A U16A C60A it was at most 0.5; in that of C4A A20G U28G, at most 0.5. In the case of G10A A21C G56C it was at most 0.5. Then G58U C66A A70C, with 0.665; and A14U C24U C33A G44C U47C A70C, with at most 0.5; and C24G A36C U54C A70C, with at most 0.5. C30G C33A C49A: the yeast fitness was 0.618. In the case of C11A A14U it was at most 0.5; in that of C24G G48A A57U, at most 0.5. Then C30A A36C G38A C61U, with at most 0.5; and U7A G10U C34U, with at most 0.5; and C11U A21U C55A, with 0.632. Then C22A C24G A36G G39C C55U, with at most 0.5. As to C4U U13A G68C, the yeast fitness was at most 0.5. Then A42U C46U A69C, with 0.9; and U19C C29U G38C, with at most 0.5; and A20U C22G A57G, with at most 0.5.

On to A20G C55U, for which the yeast fitness worked out at 0.82. Then C4A G6A G50C A57C A69C, with at most 0.5; and C5A C24G C31G U47A, with at most 0.5; and G10C C29U C31U A36G, with at most 0.5.

For U2C C4U G10A A40U A42G A57U, the yeast fitness is at most 0.5. As for U19G C55G A69U, the yeast fitness was determined as 0.54. In the case of C22U U32C G52A C55A A57G U59G it was at most 0.5; in that of U8C U16G G25A G68A, at most 0.5; in that of C11U G25A U53C A69C, at most 0.5. Turning to A21U C31G C33G G67A, the yeast fitness is at most 0.5.

On to C29G C30U C31U U54C, for which the yeast fitness was at most 0.5. Then C30A G41C G63C, with at most 0.5; and C4G C5U C22G C62G, with at most 0.5. In the case of U2G A14C A21G it was at most 0.5; in that of U3A A15C G17C, 0.507. With C33G C34G, the yeast fitness was at most 0.5. Consider A57C A65U, for which the yeast fitness worked out at 0.606.

A20U A37G C66A: the yeast fitness is at most 0.5.

Take C4A G18C C29A C31A: the yeast fitness is 0.562.

Regarding A15C U28C G48C G67A, the yeast fitness is at most 0.5.

C5G A21U: the yeast fitness is 0.731. In the case of C4A A36G A65U A70C it was at most 0.5.

In the case of G48C G56A C61A, the yeast fitness is at most 0.5.

In the case of G6A G9C C31U, the yeast fitness is at most 0.5. With C11U C33G A36G C49A A65G, the yeast fitness was at most 0.5. Consider U2A U13C G38A, for which the yeast fitness is at most 0.5. In the case of G23C C33G A57G it was at most 0.5; in that of A20U A21U C62A, at most 0.5; in that of U8C G39A U53A, at most 0.5.

G39C U53C A65G C66G G68C: the yeast fitness was at most 0.5. In the case of C11U G12A C31U U53C it was at most 0.5. Then U2C U3A A57U C62U, with at most 0.5. For C31G C46A G63C, the yeast fitness is at most 0.5.

In the case of C4U C24U U47C G56C, the yeast fitness was at most 0.5. In the case of G6C G25A C60G G68C it was at most 0.5; in that of U28A U64C, 0.834; in that of G17A A43C C49U U54A G56C, at most 0.5. In the case of U26A C31G A37G G63A it was at most 0.5; in that of G18A A20U C27G G48A, at most 0.5; in that of U2C C4U A40C A42U C46G, at most 0.5. As for C22A U32C C66U, the yeast fitness came to 0.503. Then A21U C46G U54C, with at most 0.5; and A15C U16C A37C G50A U53A C61U, with 0.58; and C29G A40C G68A, with at most 0.5. In the case of A21C C24U C55A A57U it was at most 0.5. In the case of G12C U26A C33A it was at most 0.5. As for U16C U19G C27G C34U A40U U53A A70U, the yeast fitness was found to be 0.674.

As to C22A C27U C30G A45U, the yeast fitness was at most 0.5. In the case of G10A G17C C29G C49G it was at most 0.5; in that of U7C A42C U59A A69U, at most 0.5. Take A45U C60G C66G: the yeast fitness is at most 0.5. In the case of U3C C5G A15C C27G it was at most 0.5; in that of C29A C33U U54C C55G, at most 0.5. In the case of U16C G18A C24G A45U U47C it was at most 0.5. In the case of G9C U19C C46U G50A G56A it was at most 0.5; in that of A14G A20C C30U C66U, at most 0.5. Turning to C31G G51C C62A, the yeast fitness was at most 0.5. Then C11U C27A U54G, with at most 0.5; and U8C A37C G39C, with at most 0.5; and G17A U32A U35C G67C, with at most 0.5. For the variant A20G C22U G51A, the yeast fitness is at most 0.5. Then G6C C11A C34G A69U, with at most 0.5. Then C30U G38C C55G C61U, with at most 0.5. With A36U C55A, the yeast fitness was at most 0.5.

On to C5U G6A C22G C29A A45U, for which the yeast fitness is at most 0.5.

With C4A C22A C55G A57C, the yeast fitness was at most 0.5.

For the variant C30G C34G U35A G68A, the yeast fitness is at most 0.5. Then U2G C30G C49A G56A C60G G68C, with at most 0.5; and C5U C22G G41A A70G, with at most 0.5. In the case of U7G U26A G48C it was at most 0.5; in that of C4U G12A C33U A65U, at most 0.5. In the case of U8C C24G C30G G39A it was at most 0.5; in that of C4G G9A A21C C22A U26C, at most 0.5.

For U7C U8C A21G C31A, the yeast fitness is at most 0.5. Regarding C34U A70G, the yeast fitness stood at 0.803. Then C11G A20U G25A C49A C55U, with at most 0.5; and C11G C27U C33G A69C, with at most 0.5; and C11U C34U C62A C66U, with at most 0.5. In the case of C5U U28A C62G G63A it was at most 0.5.

With C22A C30U G67C, the yeast fitness was at most 0.5.

As to A43C C49G C61A, the yeast fitness amounted to 0.702. Then A15C C33A C34U A36C G48C G50C, with at most 0.5; and A20G A43G, with 1.07.
